These are yes or no findings as the source states them, for the method shown. Binding seen in cells or lysates may run through a third protein. Some results given as binding are weak or reduced against the parent protein; the word gives no strength.
T1: heat shock cognate B (HSCB) (human (endogenous in THP-1)) (UniProt Q8IWL3)
T1 sequence: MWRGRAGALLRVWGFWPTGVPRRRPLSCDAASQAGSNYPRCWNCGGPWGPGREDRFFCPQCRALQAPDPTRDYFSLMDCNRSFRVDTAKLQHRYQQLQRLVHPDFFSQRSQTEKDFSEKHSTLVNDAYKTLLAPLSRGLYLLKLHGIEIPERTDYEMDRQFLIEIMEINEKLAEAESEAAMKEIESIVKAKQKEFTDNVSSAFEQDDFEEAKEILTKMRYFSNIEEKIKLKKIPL

T2: ferredoxin 1 (FDX1) (human (endogenous in THP-1)) (UniProt P10109)
T2 sequence: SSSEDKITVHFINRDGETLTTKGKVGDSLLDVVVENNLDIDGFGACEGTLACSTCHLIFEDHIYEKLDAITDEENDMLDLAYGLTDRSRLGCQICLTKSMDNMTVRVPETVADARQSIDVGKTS

B1: hexokinase domain containing 1 (HKDC1) (protein, UniProt Q2TB90 1-917)
chain: MFAVHLMAFYFSKLKEDQIKKVDRFLYHMRLSDDTLLDIMRRFRAEMEKGLAKDTNPTAAVKMLPTFVRAIPDGSENGEFLSLDLGGSKFRVLKVQVAEEGKRHVQMESQFYPTPNEIIRGNGTELFEYVADCLADFMKTKDLKHKKLPLGLTFSFPCRQTKLEEGVLLSWTKKFKARGVQDTDVVSRLTKAMRRHKDMDVDILALVNDTVGTMMTCAYDDPYCEVGVIIGTGTNACYMEDMSNIDLVEGDEGRMCINTEWGAFGDDGALEDIRTEFDRELDLGSLNPGKQLFEKMISGLYLGELVRLILLKMAKAGLLFGGEKSSALHTKGKIETRHVAAMEKYKEGLANTREILVDLGLEPSEADCIAVQHVCTIVSFRSANLCAAALAAILTRLRENKKVERLRTTVGMDGTLYKIHPQYPKRLHKVVRKLVPSCDVRFLLSESGSTKGAAMVTAVASRVQAQRKQIDRVLALFQLTREQLVDVQAKMRAELEYGLKKKSHGLATVRMLPTYVCGLPDGTEKGKFLALDLGGTNFRVLLVKIRSGRRSVRMYNKIFAIPLEIMQGTGEELFDHIVQCIADFLDYMGLKGASLPLGFTFSFPCRQMSIDKGTLIGWTKGFKATDCEGEDVVDMLREAIKRRNEFDLDIVAVVNDTVGTMMTCGYEDPNCEIGLIAGTGSNMCYMEDMRNIEMVEGGEGKMCINTEWGGFGDNGCIDDIWTRYDTEVDEGSLNPGKQRYEKMTSGMYLGEIVRQILIDLTKQGLLFRGQISERLRTRGIFETKFLSQIESDRLALLQVRRILQQLGLDSTCEDSIVVKEVCGAVSRRAAQLCGAGLAAIVEKRREDQGLEHLRITVGVDGTLYKLHPHFSRILQETVKELAPRCDVTFMLSEDGSGKGAALITAVAKRLQQAQKEN
B2: heat shock cognate B (HSCB) (protein, UniProt Q8IWL3 1-235)
chain: T1 sequence

Columns and labels:
[1] = target: T1, heat shock cognate B (HSCB) (human (endogenous in THP-1)); assay: co-IP; THP-1 cell lysate supernatant (13,000 g, 30 min, 4°C); 5 ug target antibody or IgG, 4°C 6 h; protein A+G agarose beads overnight at 4°C; western blot; control and LPS-treated cells; which antibody precipitated is not told
[2] = target: T2, ferredoxin 1 (FDX1) (human (endogenous in THP-1)); assay: as above

Binder	binding [1]	binding [2]
B1	binds	–
B2	–	binds

— paper PMC12748187
